Test results from article PMC5408658, “In vitro characterization of six STUB1 variants in spinocerebellar ataxia 16 reveals altered structural properties for the encoded CHIP proteins” (Bioscience Reports, 2017).
Results are given in words; binding and its absence hold for the method and conditions named. Some results given as binding are weak or reduced against the parent protein; the word gives no strength. Tags and fused reporters may be left off the sequences shown.

Molecular target: T1, His-maltose-binding protein (MBP)-CHIP fusion protein, wild type (human), Q9UNE7
T1 chain: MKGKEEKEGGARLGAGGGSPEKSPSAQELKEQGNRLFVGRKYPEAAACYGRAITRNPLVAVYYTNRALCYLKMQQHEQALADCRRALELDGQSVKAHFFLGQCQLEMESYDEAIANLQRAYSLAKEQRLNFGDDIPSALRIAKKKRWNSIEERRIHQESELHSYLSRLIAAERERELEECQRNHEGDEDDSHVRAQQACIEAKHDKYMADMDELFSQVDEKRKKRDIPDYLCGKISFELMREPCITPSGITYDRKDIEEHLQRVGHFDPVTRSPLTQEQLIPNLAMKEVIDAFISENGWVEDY
Assay: native gel or EMSA; 10 ug MBP fusion protein on a 12% NativePAGE Bis-Tris gel, Coomassie Blue staining; self-association (oligomeric states); both purified
Conditions: remark: other sources report otherwise

binding: binds
B1: His-maltose-binding protein (MBP)-CHIP fusion protein, wild type, Q9UNE7-1 1-303 (enzyme)
chain: T1 chain
